Assay results reported in PubChem BioAssay AID540276 (National Center for Advancing Translational Sciences (NCATS), 2011).
The campaign covered roughly 300,000 compounds. About 5,400 (1.8%) were called active. The inconclusive results got no clear call from the source; some entries with a clear call stand among them for comparison. The call rests on the fitted dose curve; tested in HEK293 cells. Potencies of inconclusive entries are doubtful fits and often do not repeat.

Assay: qHTS for inhibitors of binding or entry into cells for Marburg Virus
Details: Marburg virus pseudotyped entry inhibition, cell reporter; series mostly up to 37.8 µM
Potency means the concentration at half of the fitted maximal effect.

Structure (SMILES) | Potency
O=C(CCCC(=O)c1ccc(F)cc1)c1ccc(F)cc1 | inconclusive: 14.1 µM [inhibitor, single point]
CCOc1cc(/C=C/C(=O)O)ccc1OCCOc1ccc(F)cc1 | inconclusive: 14.6 µM [inhibitor, partial curve, poor fit]
CCN(CC)C(=O)c1cc(-c2ccccc2OC)on1 | inconclusive: 1.26 µM [activator, single point]
CC(=O)Nc1ccc(S(=O)(=O)NCCN2CCOCC2)cc1 | inconclusive: 1.03 µM [activator, partial curve, poor fit]
CCOC(=O)c1cccc(NS(=O)(=O)c2cc(Br)cc3c2N(C(=O)C2CC2)CC3)c1 | inconclusive: 15.8 µM [inhibitor, single point]
O=C(Cc1c[nH]c2ccccc12)OCCOC(=O)Cc1c[nH]c2ccccc12 | active: 18.3 µM
CCNC(=S)NNC(=O)c1cc(-c2cccnc2)nc2ccccc12 | inconclusive: 8.91 µM [inhibitor, partial curve, poor fit]
CC1CCCC(NC(=O)c2ccc(COc3ccccc3)o2)C1C (centres undefined) | inconclusive: 35.5 µM [inhibitor, single point]
Cc1cccc(S(=O)(=O)N2CCC(CO)(Cc3ccccc3)CC2)c1 | inconclusive: 8.91 µM [inhibitor, partial curve, poor fit]
COc1ccc2c(C)nc(Nc3nc(C)cc(C)n3)nc2c1 | inactive
COC(=O)c1cc(NC(=O)CSc2ncn[nH]2)ccc1Cl | inconclusive: 4.47 µM [inhibitor, full curve]
CC(C)OCCCNC(=O)c1ccc(NC(=O)C2=CSCCO2)cc1 | inconclusive: 25.1 µM [activator, single point]
COC(=O)c1ccc(CNC(=O)COC(=O)c2cccs2)cc1 | inactive
O=C(COc1cccc(C(F)(F)F)c1)Nc1ccc(S(=O)(=O)N2CCCCC2)cc1 | inactive
Cc1cccc(C(=O)Nc2scc(-c3ccc(Br)cc3)c2C(=O)O)c1 | inconclusive: 8.91 µM [inhibitor, partial curve, poor fit]
CC(=O)c1cccc(NC(=O)C(=O)Nc2cccc3ccccc23)c1 | inconclusive: 5.62 µM [activator, single point]
Cc1ccc(S(=O)(=O)CC(C)N2CCN(C3CCCCC3)CC2)cc1 (centres undefined) | inconclusive: 0.073 µM [activator, partial curve, poor fit]
Cc1ccc(CNC(=O)CCNS(=O)(=O)c2ccc(C)cc2)cc1 | inactive
Cc1ccc(-c2nn3c(-c4ccco4)nnc3c3ccccc23)cc1S(=O)(=O)NCC1CCCO1 (centres undefined) | inconclusive: 4.47 µM [inhibitor, full curve, poor fit]

Retrieved by compound from above (2):
Structure (SMILES) | Potency
COC(=O)c1cc(NC(=O)CSc2ncn[nH]2)ccc1Cl | inconclusive: 4.47 µM [inhibitor, full curve]
O=C(CCCC(=O)c1ccc(F)cc1)c1ccc(F)cc1 | inconclusive: 14.1 µM [inhibitor, single point]
